Measurements as given in publication PMC11653710.
No constants are given. Whether binding was seen depends on the method and setting. Binding seen in cells or lysates may run through a third protein. Some results given as binding are weak or reduced against the parent protein; the word gives no strength. For some of these results: Sequences can lack the tags named with a protein. Blank lines part the entries; values can stand above or below the molecule they belong to.

By UniProt entry, the sequences of proteins in these tests, tags left out. Residues count along the entry.
UniProt Q6YHK3, residues 22-1420: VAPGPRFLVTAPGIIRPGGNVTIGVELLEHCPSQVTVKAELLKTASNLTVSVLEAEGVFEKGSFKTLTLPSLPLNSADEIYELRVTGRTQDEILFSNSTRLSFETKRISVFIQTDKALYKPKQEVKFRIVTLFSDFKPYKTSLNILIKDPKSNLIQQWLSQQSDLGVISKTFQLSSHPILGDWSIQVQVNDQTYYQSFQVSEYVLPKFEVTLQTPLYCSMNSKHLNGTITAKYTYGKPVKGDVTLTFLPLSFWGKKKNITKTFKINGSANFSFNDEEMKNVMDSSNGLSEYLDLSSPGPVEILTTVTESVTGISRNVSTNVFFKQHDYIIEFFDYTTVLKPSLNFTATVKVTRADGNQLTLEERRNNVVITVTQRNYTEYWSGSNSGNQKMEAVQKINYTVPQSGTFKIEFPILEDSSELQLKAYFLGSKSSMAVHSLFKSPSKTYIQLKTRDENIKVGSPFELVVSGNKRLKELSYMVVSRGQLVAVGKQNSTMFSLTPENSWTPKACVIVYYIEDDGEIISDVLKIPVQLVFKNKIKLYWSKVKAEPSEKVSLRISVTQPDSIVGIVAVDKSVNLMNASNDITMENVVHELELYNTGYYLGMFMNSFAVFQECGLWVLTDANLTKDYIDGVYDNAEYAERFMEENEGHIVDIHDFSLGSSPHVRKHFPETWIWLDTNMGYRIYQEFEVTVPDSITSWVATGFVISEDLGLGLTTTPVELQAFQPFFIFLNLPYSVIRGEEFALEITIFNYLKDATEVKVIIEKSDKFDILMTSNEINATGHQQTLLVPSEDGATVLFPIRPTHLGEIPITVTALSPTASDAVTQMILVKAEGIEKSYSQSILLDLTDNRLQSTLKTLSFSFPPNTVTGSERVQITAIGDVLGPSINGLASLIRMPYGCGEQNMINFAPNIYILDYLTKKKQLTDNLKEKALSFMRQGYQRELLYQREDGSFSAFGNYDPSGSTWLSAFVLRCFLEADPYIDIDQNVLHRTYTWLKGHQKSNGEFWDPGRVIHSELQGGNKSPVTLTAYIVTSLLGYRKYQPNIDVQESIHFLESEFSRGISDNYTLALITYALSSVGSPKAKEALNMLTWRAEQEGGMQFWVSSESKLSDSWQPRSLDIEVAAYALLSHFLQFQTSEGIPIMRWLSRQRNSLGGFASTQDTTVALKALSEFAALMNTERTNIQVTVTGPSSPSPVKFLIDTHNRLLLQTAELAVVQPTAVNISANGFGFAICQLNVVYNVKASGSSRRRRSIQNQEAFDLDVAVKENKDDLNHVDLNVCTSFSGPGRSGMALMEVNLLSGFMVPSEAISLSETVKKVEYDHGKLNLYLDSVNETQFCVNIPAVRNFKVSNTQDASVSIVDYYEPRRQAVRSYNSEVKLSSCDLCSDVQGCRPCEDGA
UniProt Q704Y3: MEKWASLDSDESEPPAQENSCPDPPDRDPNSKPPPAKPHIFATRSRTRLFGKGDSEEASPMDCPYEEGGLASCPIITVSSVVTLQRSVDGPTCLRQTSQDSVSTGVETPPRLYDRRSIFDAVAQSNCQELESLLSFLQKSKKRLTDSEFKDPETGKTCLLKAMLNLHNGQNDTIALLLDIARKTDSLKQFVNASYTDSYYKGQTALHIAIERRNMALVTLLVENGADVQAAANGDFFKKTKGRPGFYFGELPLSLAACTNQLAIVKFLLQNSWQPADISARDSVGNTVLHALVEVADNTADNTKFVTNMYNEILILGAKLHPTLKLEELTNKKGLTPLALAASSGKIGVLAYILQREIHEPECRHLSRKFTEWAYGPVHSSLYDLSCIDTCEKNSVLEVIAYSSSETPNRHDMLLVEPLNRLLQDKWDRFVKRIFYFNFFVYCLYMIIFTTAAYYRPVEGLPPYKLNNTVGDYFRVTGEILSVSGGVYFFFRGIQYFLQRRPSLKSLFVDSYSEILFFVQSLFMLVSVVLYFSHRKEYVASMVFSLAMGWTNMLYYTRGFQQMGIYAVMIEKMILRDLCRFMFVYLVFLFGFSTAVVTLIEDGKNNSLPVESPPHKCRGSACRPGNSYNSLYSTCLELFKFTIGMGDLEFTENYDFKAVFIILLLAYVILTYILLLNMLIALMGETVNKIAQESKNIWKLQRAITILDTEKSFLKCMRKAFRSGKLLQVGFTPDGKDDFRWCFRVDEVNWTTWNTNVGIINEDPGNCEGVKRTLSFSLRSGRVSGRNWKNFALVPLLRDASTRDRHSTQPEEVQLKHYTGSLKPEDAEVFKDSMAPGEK

Columns and labels:
[1] = target: CD109 (as in the co-IP and PLA with TRPV1 of DRG cells) (UniProt Q6YHK3); experiment: co-IP; CD109 and TRPV1, DRG cells
[2] = target: CD109 (as in the co-IP and PLA with TRPV1 of DRG cells) (UniProt Q6YHK3); experiment: proximity ligation; PLA of CD109 and TRPV1 on the membrane of DRG cells
[3] = target: GST-labeled recombinant CD109 protein (UniProt Q6YHK3); experiment: pull-down; GST pull-down with GST-labeled recombinant CD109 and proteins of DRG cells; silver staining, band at 71-117 kDa identified as TRPV1; only the target purified
His-labeled Rab5B = target: T1, His-labeled Rab5B (UniProt P61020); experiment: co-IP; His-labeled Rab5B in PANC-1 cells; with CD109 knockdown, CD109 overexpression, circPNIT knockdown
T1 sequence: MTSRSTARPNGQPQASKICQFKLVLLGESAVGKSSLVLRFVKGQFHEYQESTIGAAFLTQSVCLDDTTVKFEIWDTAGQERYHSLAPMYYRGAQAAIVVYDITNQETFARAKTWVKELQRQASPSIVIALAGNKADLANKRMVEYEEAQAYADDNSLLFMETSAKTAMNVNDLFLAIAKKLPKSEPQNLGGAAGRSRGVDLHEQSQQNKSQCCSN

binding [1]: binds
binding [2]: binds
binding [3]: binds
Molecule: TRPV1 (from UniProt Q704Y3 1-839) (receptor)

binding (His-labeled Rab5B): binds
B1: Flotillin 1 (protein, UniProt O75955 1-427)
chain: MFFTCGPNEAMVVSGFCRSPPVMVAGGRVFVLPCIQQIQRISLNTLTLNVKSEKVYTRHGVPISVTGIAQVKIQGQNKEMLAAACQMFLGKTEAEIAHIALETLEGHQRAIMAHMTVEEIYKDRQKFSEQVFKVASSDLVNMGISVVSYTLKDIHDDQDYLHSLGKARTAQVQKDARIGEAEAKRDAGIREAKAKQEKVSAQYLSEIEMAKAQRDYELKKAAYDIEVNTRRAQADLAYQLQVAKTKQQIEEQRVQVQVVERAQQVAVQEQEIARREKELEARVRKPAEAERYKLERLAEAEKSQLIMQAEAEAASVRMRGEAEAFAIGARARAEAEQMAKKAEAFQLYQEAAQLDMLLEKLPQVAEEISGPLTSANKITLVSSGSGTMGAAKVTGEVLDILTRLPESVERLTGVSISQVNHKPLRTA
